In article PMC1885977:
These are yes or no findings as the source states them, for the method shown. In cells and extracts the contact can be indirect. These calls come from enrichment with a bait or labelling near it, and not all partners need be listed. No binding means not detected with the bait. Sequences can lack the tags named with a protein.

Molecular target: T1, p34-Arc-CTAP (D. discoideum p34-Arc with a C-terminal TAP tag) (D. discoideum) (UniProt O96623)
T1 sequence: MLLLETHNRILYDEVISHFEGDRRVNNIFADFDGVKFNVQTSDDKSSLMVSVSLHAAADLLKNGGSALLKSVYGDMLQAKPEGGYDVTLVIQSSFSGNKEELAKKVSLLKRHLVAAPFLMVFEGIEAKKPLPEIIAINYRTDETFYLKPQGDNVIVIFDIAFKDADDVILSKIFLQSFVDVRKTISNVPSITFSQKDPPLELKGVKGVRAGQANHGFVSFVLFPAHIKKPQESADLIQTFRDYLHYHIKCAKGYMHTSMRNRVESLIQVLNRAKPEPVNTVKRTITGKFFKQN
Experiment: affinity purification with mass spectrometry; tandem affinity purification from Triton X-100 lysates of 2 x 10^9 AX2 cells: IgG-agarose (150 mM NaCl, 10 mM Tris pH 8.0, 0.1% NP-40, 4 °C), release by TEV protease, calmodulin resin, elution with EGTA; SDS-PAGE, colloidal blue, bands identified by MALDI-TOF/TOF; controls: cells with pDV-CTAP and pDV-CGFP-CTAP

binding: no binding
Substance: discoidin B (D. discoideum (endogenous in AX2))
